From the supplement of paper PMC12819154, “High-throughput peptide-centric local stability assay extends protein–ligand identification to membrane proteins, tissues and bacteria” (Nature Structural & Molecular Biology, 2025)
Some of the results follow. Small differences around the control level are noise.

Sequences of proteins named here, by UniProt entry; tags and fusion partners are left off. A change or cut given only in a name is not applied to a line headed by its entry.
UniProt Q03014: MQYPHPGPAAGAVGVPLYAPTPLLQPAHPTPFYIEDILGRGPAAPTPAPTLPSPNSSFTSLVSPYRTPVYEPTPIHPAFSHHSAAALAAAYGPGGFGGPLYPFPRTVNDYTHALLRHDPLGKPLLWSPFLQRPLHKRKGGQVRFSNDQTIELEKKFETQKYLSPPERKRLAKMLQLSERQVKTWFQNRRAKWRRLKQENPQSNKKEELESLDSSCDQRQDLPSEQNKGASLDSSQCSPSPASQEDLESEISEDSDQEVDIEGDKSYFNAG
UniProt Q05655: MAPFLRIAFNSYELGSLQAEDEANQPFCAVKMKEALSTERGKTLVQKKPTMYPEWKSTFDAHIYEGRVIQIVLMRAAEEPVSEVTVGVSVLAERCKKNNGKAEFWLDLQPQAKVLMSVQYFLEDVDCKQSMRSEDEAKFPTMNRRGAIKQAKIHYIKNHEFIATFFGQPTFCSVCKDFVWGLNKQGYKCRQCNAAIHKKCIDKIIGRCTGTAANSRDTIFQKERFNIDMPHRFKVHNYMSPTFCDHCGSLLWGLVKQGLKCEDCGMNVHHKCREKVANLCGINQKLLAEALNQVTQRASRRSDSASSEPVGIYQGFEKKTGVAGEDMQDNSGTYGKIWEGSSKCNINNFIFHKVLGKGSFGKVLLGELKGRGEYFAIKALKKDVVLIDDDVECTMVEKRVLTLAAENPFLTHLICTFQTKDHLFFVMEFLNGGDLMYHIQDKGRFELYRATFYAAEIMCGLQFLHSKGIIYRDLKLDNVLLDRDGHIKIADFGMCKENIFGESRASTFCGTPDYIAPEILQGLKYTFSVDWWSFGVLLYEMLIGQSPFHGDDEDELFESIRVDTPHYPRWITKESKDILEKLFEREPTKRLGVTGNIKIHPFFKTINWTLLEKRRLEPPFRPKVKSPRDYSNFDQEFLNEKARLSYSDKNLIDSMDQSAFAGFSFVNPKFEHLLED
UniProt Q12792, whole entry: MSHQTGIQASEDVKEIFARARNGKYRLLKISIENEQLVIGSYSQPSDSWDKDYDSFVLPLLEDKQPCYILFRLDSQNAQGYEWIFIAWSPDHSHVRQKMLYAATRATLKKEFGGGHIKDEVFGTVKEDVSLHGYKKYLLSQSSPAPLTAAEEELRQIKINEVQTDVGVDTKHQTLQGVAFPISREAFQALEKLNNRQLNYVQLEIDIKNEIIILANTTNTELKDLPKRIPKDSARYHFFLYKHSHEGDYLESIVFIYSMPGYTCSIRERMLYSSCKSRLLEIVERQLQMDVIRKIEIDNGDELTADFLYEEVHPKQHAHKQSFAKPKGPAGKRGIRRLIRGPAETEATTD
UniProt Q06055: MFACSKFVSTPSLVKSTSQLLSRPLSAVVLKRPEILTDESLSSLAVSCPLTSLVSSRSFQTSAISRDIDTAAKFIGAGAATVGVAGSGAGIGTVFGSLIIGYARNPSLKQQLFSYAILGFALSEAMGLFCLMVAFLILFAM
UniProt Q0VGE8: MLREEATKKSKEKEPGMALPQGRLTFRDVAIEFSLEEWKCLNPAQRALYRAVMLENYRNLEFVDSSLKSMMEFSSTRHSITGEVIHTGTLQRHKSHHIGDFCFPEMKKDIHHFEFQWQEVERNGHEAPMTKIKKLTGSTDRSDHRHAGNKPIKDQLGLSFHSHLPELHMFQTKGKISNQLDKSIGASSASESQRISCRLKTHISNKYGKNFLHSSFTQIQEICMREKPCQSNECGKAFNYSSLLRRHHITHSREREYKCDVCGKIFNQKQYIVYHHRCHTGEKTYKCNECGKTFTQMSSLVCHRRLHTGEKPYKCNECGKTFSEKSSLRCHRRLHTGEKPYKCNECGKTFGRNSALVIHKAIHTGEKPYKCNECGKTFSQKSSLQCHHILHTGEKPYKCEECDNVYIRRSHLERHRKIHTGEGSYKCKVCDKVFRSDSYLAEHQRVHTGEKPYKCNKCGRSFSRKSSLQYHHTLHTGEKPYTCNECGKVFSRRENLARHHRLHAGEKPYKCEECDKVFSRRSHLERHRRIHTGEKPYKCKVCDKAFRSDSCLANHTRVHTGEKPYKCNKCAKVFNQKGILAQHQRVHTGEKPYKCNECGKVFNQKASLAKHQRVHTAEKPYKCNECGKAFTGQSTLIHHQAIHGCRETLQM
UniProt Q03252: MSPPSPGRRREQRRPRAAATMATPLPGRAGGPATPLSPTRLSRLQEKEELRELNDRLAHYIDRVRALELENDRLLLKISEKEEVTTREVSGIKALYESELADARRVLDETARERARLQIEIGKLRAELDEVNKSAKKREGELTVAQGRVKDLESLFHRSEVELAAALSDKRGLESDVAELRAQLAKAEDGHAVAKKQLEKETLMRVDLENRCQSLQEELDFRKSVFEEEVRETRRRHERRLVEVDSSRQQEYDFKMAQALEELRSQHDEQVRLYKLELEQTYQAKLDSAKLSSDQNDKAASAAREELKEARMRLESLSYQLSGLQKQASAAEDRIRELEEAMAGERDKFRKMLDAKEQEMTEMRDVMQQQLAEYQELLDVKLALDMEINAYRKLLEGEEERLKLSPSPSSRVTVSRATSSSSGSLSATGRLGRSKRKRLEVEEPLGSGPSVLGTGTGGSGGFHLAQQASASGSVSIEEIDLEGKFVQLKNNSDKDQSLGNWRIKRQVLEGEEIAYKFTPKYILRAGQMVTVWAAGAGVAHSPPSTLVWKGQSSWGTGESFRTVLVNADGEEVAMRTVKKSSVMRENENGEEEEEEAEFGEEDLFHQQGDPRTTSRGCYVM
UniProt Q07864, whole entry: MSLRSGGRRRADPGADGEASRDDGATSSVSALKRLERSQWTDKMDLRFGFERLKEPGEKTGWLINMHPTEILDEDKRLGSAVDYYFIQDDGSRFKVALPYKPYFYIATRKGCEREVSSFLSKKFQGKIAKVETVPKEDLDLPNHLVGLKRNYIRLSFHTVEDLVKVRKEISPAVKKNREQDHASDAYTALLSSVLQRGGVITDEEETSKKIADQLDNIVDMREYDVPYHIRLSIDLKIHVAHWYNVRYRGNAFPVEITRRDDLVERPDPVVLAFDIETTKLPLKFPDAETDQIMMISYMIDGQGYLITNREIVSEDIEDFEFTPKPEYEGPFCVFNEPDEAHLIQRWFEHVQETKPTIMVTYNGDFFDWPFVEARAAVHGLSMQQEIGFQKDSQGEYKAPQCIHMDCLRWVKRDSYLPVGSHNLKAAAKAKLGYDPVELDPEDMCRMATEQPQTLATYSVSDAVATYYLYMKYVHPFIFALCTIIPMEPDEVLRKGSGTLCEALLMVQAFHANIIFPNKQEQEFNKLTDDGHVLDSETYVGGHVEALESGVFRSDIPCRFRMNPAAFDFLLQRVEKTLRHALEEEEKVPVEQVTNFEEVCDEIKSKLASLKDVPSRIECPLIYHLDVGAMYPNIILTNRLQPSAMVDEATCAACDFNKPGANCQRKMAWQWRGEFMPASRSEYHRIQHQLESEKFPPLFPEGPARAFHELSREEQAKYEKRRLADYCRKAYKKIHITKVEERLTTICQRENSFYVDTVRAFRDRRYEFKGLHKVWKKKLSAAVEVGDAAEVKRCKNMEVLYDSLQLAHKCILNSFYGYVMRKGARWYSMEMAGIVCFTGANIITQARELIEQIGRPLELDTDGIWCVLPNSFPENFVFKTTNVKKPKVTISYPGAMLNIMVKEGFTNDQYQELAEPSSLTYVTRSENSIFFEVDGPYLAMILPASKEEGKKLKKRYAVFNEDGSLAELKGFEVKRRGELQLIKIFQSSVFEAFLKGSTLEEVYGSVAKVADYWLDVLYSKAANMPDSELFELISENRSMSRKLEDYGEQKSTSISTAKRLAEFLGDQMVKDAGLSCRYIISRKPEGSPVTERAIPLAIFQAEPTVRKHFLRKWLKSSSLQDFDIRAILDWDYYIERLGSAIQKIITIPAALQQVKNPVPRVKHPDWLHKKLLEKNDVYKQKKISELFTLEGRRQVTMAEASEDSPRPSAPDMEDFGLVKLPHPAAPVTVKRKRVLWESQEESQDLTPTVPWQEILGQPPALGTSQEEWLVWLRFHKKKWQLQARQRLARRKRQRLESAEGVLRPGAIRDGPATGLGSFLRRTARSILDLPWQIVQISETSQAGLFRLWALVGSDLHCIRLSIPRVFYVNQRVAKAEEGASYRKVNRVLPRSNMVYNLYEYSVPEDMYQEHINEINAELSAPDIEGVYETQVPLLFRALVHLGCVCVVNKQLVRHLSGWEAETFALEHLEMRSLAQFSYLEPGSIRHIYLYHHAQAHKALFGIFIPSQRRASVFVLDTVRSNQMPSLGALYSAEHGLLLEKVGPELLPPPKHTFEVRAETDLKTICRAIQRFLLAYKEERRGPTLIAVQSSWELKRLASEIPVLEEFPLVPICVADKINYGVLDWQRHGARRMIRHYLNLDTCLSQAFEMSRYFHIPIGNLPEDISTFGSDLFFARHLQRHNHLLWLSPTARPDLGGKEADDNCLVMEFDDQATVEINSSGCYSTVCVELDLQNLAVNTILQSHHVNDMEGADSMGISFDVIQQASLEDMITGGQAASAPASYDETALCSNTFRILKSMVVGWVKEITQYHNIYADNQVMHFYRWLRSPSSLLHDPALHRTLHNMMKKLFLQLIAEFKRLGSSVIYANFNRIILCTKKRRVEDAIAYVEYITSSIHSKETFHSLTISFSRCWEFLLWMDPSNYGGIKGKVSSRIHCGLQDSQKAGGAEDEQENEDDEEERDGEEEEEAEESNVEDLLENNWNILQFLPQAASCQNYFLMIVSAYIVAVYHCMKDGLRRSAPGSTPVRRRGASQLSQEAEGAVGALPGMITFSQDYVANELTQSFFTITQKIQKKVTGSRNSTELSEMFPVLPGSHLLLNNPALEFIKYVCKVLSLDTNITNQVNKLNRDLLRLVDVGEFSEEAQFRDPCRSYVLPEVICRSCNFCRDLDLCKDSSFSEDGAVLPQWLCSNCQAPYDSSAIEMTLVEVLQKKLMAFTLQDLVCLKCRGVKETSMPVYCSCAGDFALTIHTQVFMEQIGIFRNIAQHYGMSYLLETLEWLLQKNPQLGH
UniProt Q05209: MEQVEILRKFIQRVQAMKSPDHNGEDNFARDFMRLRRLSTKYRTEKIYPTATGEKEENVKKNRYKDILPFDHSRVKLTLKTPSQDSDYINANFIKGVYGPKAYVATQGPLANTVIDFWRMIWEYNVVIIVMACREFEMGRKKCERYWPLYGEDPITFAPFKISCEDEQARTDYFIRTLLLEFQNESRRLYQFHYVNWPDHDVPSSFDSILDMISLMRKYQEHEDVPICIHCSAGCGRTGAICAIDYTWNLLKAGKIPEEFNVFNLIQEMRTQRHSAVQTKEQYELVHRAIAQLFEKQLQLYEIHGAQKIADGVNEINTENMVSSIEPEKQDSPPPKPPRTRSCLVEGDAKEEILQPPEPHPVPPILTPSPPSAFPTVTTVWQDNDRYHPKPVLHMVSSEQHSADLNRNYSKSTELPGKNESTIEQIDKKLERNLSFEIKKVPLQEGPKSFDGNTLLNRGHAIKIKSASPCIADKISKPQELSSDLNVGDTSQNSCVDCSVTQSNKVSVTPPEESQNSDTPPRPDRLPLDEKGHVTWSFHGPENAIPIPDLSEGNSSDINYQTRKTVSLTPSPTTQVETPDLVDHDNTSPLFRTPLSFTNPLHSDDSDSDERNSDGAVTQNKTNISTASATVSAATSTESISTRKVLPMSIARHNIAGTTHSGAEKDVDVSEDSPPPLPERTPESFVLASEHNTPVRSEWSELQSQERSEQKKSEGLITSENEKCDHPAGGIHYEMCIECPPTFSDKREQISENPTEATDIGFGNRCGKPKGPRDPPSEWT
UniProt P85037: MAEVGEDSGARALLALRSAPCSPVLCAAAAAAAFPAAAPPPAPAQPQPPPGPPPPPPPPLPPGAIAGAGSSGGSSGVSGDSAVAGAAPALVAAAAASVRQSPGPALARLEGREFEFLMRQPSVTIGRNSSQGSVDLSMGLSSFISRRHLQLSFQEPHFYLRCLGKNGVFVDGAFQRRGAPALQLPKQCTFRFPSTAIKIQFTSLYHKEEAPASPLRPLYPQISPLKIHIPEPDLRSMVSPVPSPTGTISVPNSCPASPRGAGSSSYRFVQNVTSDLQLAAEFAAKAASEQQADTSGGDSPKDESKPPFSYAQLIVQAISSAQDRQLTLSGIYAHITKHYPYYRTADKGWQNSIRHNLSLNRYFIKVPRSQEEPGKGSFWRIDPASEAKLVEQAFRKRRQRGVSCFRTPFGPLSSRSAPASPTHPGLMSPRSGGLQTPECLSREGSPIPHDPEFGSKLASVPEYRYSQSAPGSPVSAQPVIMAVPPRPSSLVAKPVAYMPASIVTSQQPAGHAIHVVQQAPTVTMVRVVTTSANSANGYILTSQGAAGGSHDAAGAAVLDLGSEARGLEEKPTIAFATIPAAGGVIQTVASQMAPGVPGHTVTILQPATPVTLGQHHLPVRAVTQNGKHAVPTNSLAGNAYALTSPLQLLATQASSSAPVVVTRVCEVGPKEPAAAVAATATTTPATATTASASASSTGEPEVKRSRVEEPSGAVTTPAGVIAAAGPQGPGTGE

Compound: Cc1nc(Nc2ncc(C(=O)Nc3c(C)cccc3Cl)s2)cc(N2CCN(CCO)CC2)n1 [dasatinib]
Test: log2 fold change of tryptic peptide abundance, ligand vs vehicle (limited proteolysis) (log2 ratio); higher = more trypsin-susceptible (destabilized)
Conditions: ligand concentration: 5 uM; sample: K562 cleared lysate

Target | log2 fold change
HHEX (peptide sequence: TVNDYTHALLR, peptide start residue: 106) (UniProt Q03014) | -0.129
ARHGAP4 (peptide sequence: QTIETEEVNKTLK, peptide start residue: 372) (UniProt P98171) | 0.636
ZNF616 (peptide sequence: ATQGHLTFK, peptide start residue: 2) (UniProt Q08AN1) | 0.36
UniProt Q05655 (peptide sequence: FEHLLED, peptide start residue: 670) | 0.187
TFAM (peptide sequence: FKEQLTPSQIMSLEKEIMDK, peptide start residue: 117) (UniProt Q00059) | -0.146
NFIA (peptide sequence: SLPSTSSTSSTK, peptide start residue: 265) (UniProt Q12857) | -0.259
UniProt Q05397 (peptide sequence: LLNSDLGELINK, peptide start residue: 989) | -0.38
TLE4 (peptide sequence: SSSVSPSASFR, peptide start residue: 204) (UniProt Q04727) | 0.347
APLP2 (peptide sequence: HYQHVLAVDPEK, peptide start residue: 510) (UniProt Q06481) | 0.3
TWF1 (peptide sequence: MLYSSCK, peptide start residue: 270) (UniProt Q12792) | 0.0786
CYP24A1 (peptide sequence: KLMKPGEVMK, peptide start residue: 165) (UniProt Q07973) | -0.0301
UniProt P84095 (peptide sequence: HKWHPEVCHHCPDVPILLVGTK, peptide start residue: 95) | -0.324
PMPCA (peptide sequence: SVAQYTGGIAKLER, peptide start residue: 289) (UniProt Q10713) | -0.969
UBE3A (peptide sequence: LEMIAMENPADLKK, peptide start residue: 540) (UniProt Q05086) | 0.382
CDC16 (peptide sequence: LKCYDFDVHTMK, peptide start residue: 542) (UniProt Q13042) | -0.265
UniProt Q06055 (peptide sequence: STSQLLSRPLSAVVLK, peptide start residue: 16) | 0.615
KHDRBS1 (peptide sequence: ERVLIPVKQYPK, peptide start residue: 158) (UniProt Q07666) | 0.202
ZNF816 (peptide sequence: NGHEAPMTK, peptide start residue: 123) (UniProt Q0VGE8) | -0.325
UniProt Q07912 (peptide sequence: AGPCILPIVR, peptide start residue: 840) | 0.119

Target | log2 fold change
RUNX1 (peptide sequence: QKLDDQTKPGSLSFSER, peptide start residue: 181) (UniProt Q01196) | 0.145
OGDH (peptide sequence: QILLPFR, peptide start residue: 845) (UniProt Q02218) | 1.81
LMNB2 (peptide sequence: ISEKEEVTTR, peptide start residue: 78) (UniProt Q03252) | -1.02
BPTF (peptide sequence: LPGNTNVNYR, peptide start residue: 1049) (UniProt Q12830) | -0.374
POLE (peptide sequence: FLLAYKEER, peptide start residue: 1571) (UniProt Q07864) | -0.358
AKAP12 (peptide sequence: AITPQAQEELQKQER, peptide start residue: 1758) (UniProt Q02952) | -0.369
FPGS (peptide sequence: VLLFNATGDRDPAALLK, peptide start residue: 410) (UniProt Q05932) | 0.154
IRF9 (peptide sequence: GRMDVAEPYK, peptide start residue: 101) (UniProt Q00978) | 0.434
PTPN12 (peptide sequence: PVLHMVSSEQHSADLNR, peptide start residue: 391) (UniProt Q05209) | 0.653
CSTF3 (peptide sequence: LLAEKGDMNNAK, peptide start residue: 307) (UniProt Q12996) | -0.345
KIF1A (peptide sequence: ISLVDLAGSERADSTGAK, peptide start residue: 244) (UniProt Q12756) | -0.429
UniProt Q13009 (peptide sequence: AVSAPSK, peptide start residue: 1435) | -0.0453
SOS1 (peptide sequence: TPDVFSSSPLHLQPPPLGKK, peptide start residue: 1222) (UniProt Q07889) | -0.995
ZFP36L1 (peptide sequence: TFHTIGFCPYGPR, peptide start residue: 199) (UniProt Q07352) | -0.0993
UniProt Q00537 (peptide sequence: RPHSVIGGSLGSFMAMPR, peptide start residue: 72) | 0.398
FOXK1 (peptide sequence: IHIPEPDLR, peptide start residue: 227) (UniProt P85037) | -0.084
UniProt P83731 (peptide sequence: TAMAAAKAPTK, peptide start residue: 125) | -0.214
UniProt Q12824 (peptide sequence: IVASSHGKK, peptide start residue: 63) | -0.291

Individual results from the entries so far:
UniProt P84095 (peptide sequence: HKWHPEVCHHCPDVPILLVGTK, peptide start residue: 95) – log2 fold change: -0.324
SOS1 (peptide sequence: TPDVFSSSPLHLQPPPLGKK, peptide start residue: 1222) (UniProt Q07889) – log2 fold change: -0.995
FOXK1 (peptide sequence: IHIPEPDLR, peptide start residue: 227) (UniProt P85037) – log2 fold change: -0.084
